One compound from US4242262A, “9-Nitromethyldeoxyclavulanic acid derivatives preparation and compositions” (Beecham Group Limited, priority 1977, dated 1980) can be followed below.

In the assay the test system is E. coli JT 39. The assay is described as follows: MIC of ampicillin alone or with compound of the Example, E. coli JT 39. It counts as cell-based. Particulars: Ampicillin alone.

Molecules are shown by their SMILES. A value given as a limit tells only on which side of the number the result lay.

Turning to `CC1(C)S[C@@H]2[C@H](NC(=O)[C@H](N)c3ccccc3)C(=O)N2[C@H]1C(=O)O` [Ampicillin], the MIC is, setting by setting: (table 1, E. coli JT 39) more than 500 µg/mL; (table 2 (no quantity or unit in head), E. Coli JT 39) more than 500.
